At least one compound was matched to its structure with a doubt left.
Tested on: peripheral blood mononuclear cells (PBMC)
Experiment: LPS induced cytokine and prostaglandin release from PBMC, ELISA
Assay type: cell-based
Conditions: compound 1 h then LPS, 24 hours

## C[C@@H]1C[C@H]2[C@@H]3CCC4=CC(=O)C=C[C@]4(C)[C@@]3(F)[C@@H](O)C[C@]2(C)[C@@]1(O)C(=O)CO [Dexamethasone]
  cytokine (TNFα) release: reduced
  prostanoid / prostaglandin release: reduced

Source: US11389512B2, “Use of low molecular weight fractions of human serum albumin in treating diseases” (Ampio Pharmaceuticals, Inc., priority 2015, dated 2022)
